The other results are listed elsewhere or left out. Shown are side measurements of this screen, not its main read-out; they come without a call. The list favours compounds with an active or inconclusive main result. The note in brackets gives the kind of curve behind each potency; many fits are weak.
Assay: qHTS Assay for Lipid Storage Modulators in Drosophila S3 Cells;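 for cell number change: cells counted by Cell Tracker Red CMTPX staining in the red channel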
Conditions: BODIPY lipid droplet fluorescence, 18-24 h; for cell number change: measured here: cell count max response, cells fed with added oleic acid
How it was run: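 Laser-scanning cytometry quantifies lipid droplet accumulation (500–530 nm total intensity; droplet/cell object ratio) in oleic acid-fed (400 uM added) Drosophila S3 cells treated with a concentration series. 20 uM Triacsin C defined 100% inhibition.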

[1] = measured here: lipid fluorescence (Fed channel) AC50, cells fed with added oleic acid
[2] = measured here: cell number channel AC50, cells fed with added oleic acid

| Compound | cell number change [%] | AC50 [1] | AC50 [2] |
| --- | --- | --- | --- |
| CCCc1c(C(=O)Nc2ccc(F)cc2F)cnn1-c1ccccc1 | -23.5 | 32.6 µM [falling, single point] | – |
| Cc1ccc(Sc2nc3ccc(C)cn3c(=O)c2/C=N/O)cc1 | – | – | 0.00461 µM [rising, full curve, poor fit] |
| O=C(Nc1ccc(Cl)cc1)c1nc[nH]c1C(=O)NCc1ccccc1 | -44 | 0.461 µM [falling, partial curve, poor fit] | 0.411 µM [falling, full curve] |
| Cc1ccc(C)c(OCCC(=O)OCC(=O)N2CCN(S(=O)(=O)c3ccc(Cl)cc3)CC2)c1 | 50 | – | 4.11 µM [rising, single point] |
| O=C(NCCCNCc1ccccc1)c1ccccn1 | 2.19 | 0.00517 µM [falling, full curve, poor fit] | – |
| O=C(CCNS(=O)(=O)c1ccccc1Cl)N1CCN(c2ccccn2)CC1 | -6.87 | 18.4 µM [rising, partial curve, poor fit] | – |
| CCC(C)(C)c1nnc(NC(=O)C2CC(=O)N(CCc3ccc(F)cc3)C2)s1 (stereo not given) | 15.5 | – | – |
| COc1cccc(OCc2cc(C(=O)NCc3ccccn3)no2)c1 | 4.58 | 18.4 µM [falling, partial curve] | – |
| CS(=O)(=O)N(CC(=O)N1CCCCCC1)c1cccc([N+](=O)[O-])c1 | 23.4 | – | – |
| Cn1cnnc1SCC(=O)NC1CCCN(Cc2ccccc2F)C1 (stereo not given) | 5.67 | – | – |
| COc1ccc(-c2noc(N3CCC(C(=O)NCc4ccc(F)cc4)CC3)n2)cc1 | 20.5 | 8.2 µM [falling, partial curve, poor fit] | – |
| Cc1nc(-c2ccccn2)sc1C(=O)Nc1ccc(F)cc1 | -20.4 | 23.1 µM [falling, partial curve, poor fit] | – |
| CCN(CC)S(=O)(=O)c1ccc(N2CCCCC2)c(NC(=O)/C=C/c2cc(OC)c(OC)c(OC)c2)c1 | 29.4 | – | – |
| Cc1cc(Cl)c2oc(C(=O)N(C)C(C)c3ccccn3)c(C)c2c1 (stereo not given) | 4.4 | – | – |
| COc1cccc(NC(=O)CSc2nnc3c(n2)[nH]c2ccc(C)cc23)c1 | 25.6 | 5.17 µM [rising, single point] | 6.51 µM [rising, single point] |
| Cc1[nH]c2ccc(-c3nnc(SCC(=O)c4ccc(F)cc4)o3)cc2c1C | 1.63 | 8.2 µM [rising, partial curve, poor fit] | – |
| O=C(O)Cn1nc(-c2ccccc2)c2ccccc2c1=O | 8.65 | 3.66 µM [falling, partial curve] | – |
| CCN(C(=S)Nc1ccc(OC(F)F)cc1)C1CCCCC1 | -1.47 | – | 0.0517 µM [falling, partial curve, poor fit] |
| Clc1ccccc1OCCCOc1cccc2cccnc12 | 7.66 | – | 2.91 µM [rising, partial curve] |

Entries of single compounds as entered above:
`O=C(CCNS(=O)(=O)c1ccccc1Cl)N1CCN(c2ccccn2)CC1` is listed with cell number change [%]: -6.87; AC50 [1]: 18.4 µM [rising, partial curve, poor fit]
`CCC(C)(C)c1nnc(NC(=O)C2CC(=O)N(CCc3ccc(F)cc3)C2)s1` (stereo not given) is listed with cell number change [%]: 15.5
`COc1ccc(-c2noc(N3CCC(C(=O)NCc4ccc(F)cc4)CC3)n2)cc1` is listed with cell number change [%]: 20.5; AC50 [1]: 8.2 µM [falling, partial curve, poor fit]

Continuation:

| Compound | cell number change [%] | AC50 [1] | AC50 [2] |
| --- | --- | --- | --- |
| COc1ccccc1NC(=O)CSc1nc2c(oc3ccccc32)c(=O)n1C | -40.6 | 14.6 µM [falling, partial curve] | 16.4 µM [falling, single point] |
| COc1ccc(-c2nc(CN(C)C(C)c3ccon3)c(C)o2)c(C)c1C (stereo not given) | 28.9 | 0.00461 µM [rising, full curve, poor fit] | – |
| COc1ccc(C2=NO[C@@H]3[C@@H]4C[C@@H]([C@H]5C(=O)N(c6ccc7c(c6)OCO7)C(=O)[C@@H]45)[C@H]23)cc1OC | 0.87 | 2.31 µM [rising, partial curve, poor fit] | – |
| COc1ccccc1CN(C)C(=O)c1cc(C)nc2ccccc12 | 9.21 | – | – |
| COc1ccc(C(=O)N/C(=C\c2ccc3c(c2)OCO3)C(=O)NCCc2nc3ccccc3[nH]2)cc1 | 1.57 | 3.26 µM [falling, partial curve, poor fit] | – |
| O=C(COC(=O)Cc1cn2ccsc2n1)NC12CC3CC(CC(C3)C1)C2 | -14.1 | 32.6 µM [falling, single point] | – |
| Cc1ccc(S(=O)(=O)N2CCN(c3nc4ccccc4nc3-n3nc(C)cc3C)CC2)cc1 | -1.19 | – | – |
| Cc1cc(Cl)ccc1OCCCC(=O)NCC1CCCO1 (stereo not given) | 39.8 | – | 5.8 µM [rising, full curve, poor fit] |
| O=C(NCc1ccc2[nH]c3c(c2c1)CCCC3)c1ccc(S(=O)(=O)N2CCCC2)cc1 | -6.7 | 7.31 µM [falling, partial curve, poor fit] | – |
| O=C(CCc1c[nH]c2ccccc12)Nc1ccc(S(=O)(=O)Nc2ncccn2)cc1 | -34.4 | 23.1 µM [falling, single point] | 0.103 µM [falling, full curve, poor fit] |
| Cc1ccc(S(=O)(=O)NC(C)C(c2cccs2)N2CCOCC2)cc1 (stereo not given) | 9.25 | 1.46 µM [rising, full curve, poor fit] | – |
| O=C(c1cc(C2CC2)nc2ccc(Br)cc12)N1N=C(C(F)F)CC1(O)C(F)F (stereo not given) | -57.6 | 16.4 µM [falling, single point] | 16.4 µM [falling, single point] |
| Cc1ccccc1C(C(=O)NC1CCCC1)N(C(=O)CNC(=O)c1ccco1)c1cccnc1 (stereo not given) | 10.9 | 1.16 µM [rising, full curve, poor fit] | – |
| Cc1ccc(-n2nc3c(c2NC(=O)c2c(-c4ccccc4Cl)noc2C)CSC3)cc1 | 10 | – | – |
| COc1ccc(N(CC(=O)NC2CCCCC2)S(=O)(=O)c2c(C)[nH]c(=O)[nH]c2=O)cc1 | – | 2.91 µM [rising, single point] | 0.58 µM [rising, single point] |
| CCSC1=NSC2=NC(=O)/C(=C\c3coc4ccccc4c3=O)C(=N)N12 | -7.45 | 7.31 µM [falling, partial curve] | 6.51 µM [falling, single point] |
| COc1cccc(C(=O)Oc2ccccc2/C=C\C(=O)c2cc3ccccc3o2)c1 | -10.6 | 2.06 µM [falling, full curve] | – |
| Cc1cc(NC(=O)COc2ccccc2)ccc1Cl | -4.46 | – | – |

— PubChem BioAssay AID2685 (National Center for Advancing Translational Sciences (NCATS), 2010)
